Consider one molecule from publication PMC11597211.

By UniProt entry, the sequences of proteins in these tests, tags left out.
UniProt P08047: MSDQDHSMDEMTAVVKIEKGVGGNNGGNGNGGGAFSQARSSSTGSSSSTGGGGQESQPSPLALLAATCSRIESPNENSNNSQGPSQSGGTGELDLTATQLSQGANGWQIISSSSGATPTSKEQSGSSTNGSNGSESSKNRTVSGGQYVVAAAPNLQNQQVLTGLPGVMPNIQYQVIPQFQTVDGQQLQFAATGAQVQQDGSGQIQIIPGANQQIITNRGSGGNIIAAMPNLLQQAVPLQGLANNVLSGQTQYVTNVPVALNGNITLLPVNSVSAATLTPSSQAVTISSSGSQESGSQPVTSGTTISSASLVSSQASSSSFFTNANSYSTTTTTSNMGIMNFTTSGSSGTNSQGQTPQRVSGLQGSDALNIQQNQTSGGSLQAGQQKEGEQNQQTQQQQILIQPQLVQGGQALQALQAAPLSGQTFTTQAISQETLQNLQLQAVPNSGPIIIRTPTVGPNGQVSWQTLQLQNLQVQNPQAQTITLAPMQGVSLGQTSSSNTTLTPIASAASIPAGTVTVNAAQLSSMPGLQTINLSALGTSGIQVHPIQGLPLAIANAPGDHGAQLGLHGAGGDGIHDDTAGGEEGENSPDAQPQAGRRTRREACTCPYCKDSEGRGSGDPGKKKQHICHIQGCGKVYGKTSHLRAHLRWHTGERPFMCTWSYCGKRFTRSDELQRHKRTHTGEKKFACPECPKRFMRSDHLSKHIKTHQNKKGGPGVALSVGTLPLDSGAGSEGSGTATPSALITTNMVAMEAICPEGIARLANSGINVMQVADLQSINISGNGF

Results are given in words; binding and its absence hold for the method and conditions named. Binding seen in cells or lysates may run through a third protein.

For this experiment, the target named is Specificity protein 1 (Sp1) (UniProt P08047). Nature of the experiment: co-IP; Co-IP of TKFC and Sp1, told only in the discussion; no methods, figure, bait or sample given.

B1: Triokinase/FMN cyclase (TKFC) (protein, UniProt Q3LXA3 1-575)
chain: MTSKKLVNSVAGCADDALAGLVACNPNLQLLQGHRVALRSDLDSLKGRVALLSGGGSGHEPAHAGFIGKGMLTGVIAGAVFTSPAVGSILAAIRAVAQAGTVGTLLIVKNYTGDRLNFGLAREQARAEGIPVEMVVIGDDSAFTVLKKAGRRGLCGTVLIHKVAGALAEAGVGLEEIAKQVNVVAKAMGTLGVSLSSCSVPGSKPTFELSADEVELGLGIHGEAGVRRIKMATADEIVKLMLDHMTNTTNASHVPVQPGSSVVMMVNNLGGLSFLELGIIADATVRSLEGRGVKIARALVGTFMSALEMPGISLTLLLVDEPLLKLIDAETTAAAWPNVAAVSITGRKRSRVAPAEPQEAPDSTAAGGSASKRMALVLERVCSTLLGLEEHLNALDRAAGDGDCGTTHSRAARAIQEWLKEGPPPASPAQLLSKLSVLLLEKMGGSSGALYGLFLTAAAQPLKAKTSLPAWSAAMDAGLEAMQKYGKAAPGDRTMLDSLWAAGQELQAWKSPGADLLQVLTKAVKSAEAAAEATKNMEAGAGRASYISSARLEQPDPGAVAAAAILRAILEVLQS
As for B1, the binding result is recorded as “no binding”.
